Experiment [1] deals with Flag-MVP (UniProt Q14764). The experiment can be described thus: co-IP; ectopic tagged proteins in 293T cells, lysed 48 h after transfection in RIPA buffer, primary antibody overnight at 4 °C, protein A/G agarose, western blot. A general note: Immunoblotting shows a protein as a band on a membrane.
The target in experiment [2] is importin α5. The experiment can be described thus: co-IP; PTPN18 and members of the importin family; cells and constructs not stated.
Experiment [3] has as its target importin α3. The experiment is described as above.
For experiment [4], the target named is importin α7. The experiment is described as above.
In experiment [5] the target is importin α6. Described as above.
The target of experiment [6] is importin α4. The description is as above.
Experiment [7] deals with importin α1. The experiment is described as above.

By UniProt entry, the sequences of proteins in these tests, tags left out.
UniProt Q14764: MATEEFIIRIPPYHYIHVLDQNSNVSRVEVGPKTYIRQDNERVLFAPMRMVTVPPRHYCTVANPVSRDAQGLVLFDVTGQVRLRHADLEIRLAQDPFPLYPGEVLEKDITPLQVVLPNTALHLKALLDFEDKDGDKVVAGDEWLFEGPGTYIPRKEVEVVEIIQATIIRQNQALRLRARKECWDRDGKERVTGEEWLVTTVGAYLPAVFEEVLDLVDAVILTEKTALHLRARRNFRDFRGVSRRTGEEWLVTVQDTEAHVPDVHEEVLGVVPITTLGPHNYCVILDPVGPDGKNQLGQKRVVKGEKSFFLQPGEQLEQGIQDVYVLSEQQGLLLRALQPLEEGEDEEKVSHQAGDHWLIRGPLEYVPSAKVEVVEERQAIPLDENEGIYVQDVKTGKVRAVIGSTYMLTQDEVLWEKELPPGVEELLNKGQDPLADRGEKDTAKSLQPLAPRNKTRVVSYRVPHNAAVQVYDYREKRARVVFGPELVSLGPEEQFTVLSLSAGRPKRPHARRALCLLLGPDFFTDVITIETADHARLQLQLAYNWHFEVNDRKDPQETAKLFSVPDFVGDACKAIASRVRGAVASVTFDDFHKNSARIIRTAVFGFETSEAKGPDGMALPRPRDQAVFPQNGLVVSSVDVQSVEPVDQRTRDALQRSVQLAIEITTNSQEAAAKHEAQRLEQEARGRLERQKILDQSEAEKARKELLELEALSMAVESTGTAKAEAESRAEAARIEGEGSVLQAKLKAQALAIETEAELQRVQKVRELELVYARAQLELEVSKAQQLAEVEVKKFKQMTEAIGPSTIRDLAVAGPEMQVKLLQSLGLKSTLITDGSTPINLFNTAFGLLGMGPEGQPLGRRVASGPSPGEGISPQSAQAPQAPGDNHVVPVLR

Results are given in words; binding and its absence hold for the method and conditions named. In cells and extracts the contact can be indirect. For part of these data: Binding calls can cover weak binding; strength is not graded here.

For “PTPN18-GFP ΔpNLS2A (from UniProt Q99952)”, the binding entry in experiment [1] is reported as “no binding”.
On to PTPN18-GFP ΔpNLS3 (from UniProt Q99952), for which the binding result in experiment [1] was “binds”.
Consider “PTPN18-GFP ΔpNLS2B (from UniProt Q99952)”, for which, in experiment [1], the binding result is listed as “no binding”.

B1: GST-tagged PTPN18 (natural protein, UniProt Q99952 1-460, looked up)
chain: MSRSLDSARSFLERLEARGGREGAVLAGEFSDIQACSAAWKADGVCSTVAGSRPENVRKNRYKDVLPYDQTRVILSLLQEEGHSDYINGNFIRGVDGSLAYIATQGPLPHTLLDFWRLVWEFGVKVILMACREIENGRKRCERYWAQEQEPLQTGLFCITLIKEKWLNEDIMLRTLKVTFQKESRSVYQLQYMSWPDRGVPSSPDHMLAMVEEARRLQGSGPEPLCVHCSAGCGRTGVLCTVDYVRQLLLTQMIPPDFSLFDVVLKMRKQRPAAVQTEEQYRFLYHTVAQMFCSTLQNASPHYQNIKENCAPLYDDALFLRTPQALLAIPRPPGGVLRSISVPGSPGHAMADTYAVVQKRGAPAGAGSGTQTGTGTGTGARSAEEAPLYSKVTPRAQRPGAHAEDARGTLPGRVPADQSPAGSGAYEDVAGGAQTGGLGFNLRIGRPKGPRDPPAEWTRV
notes: PTPN18 wild type, GST-tagged, for GST pull-down; also called PTPN18 WT; source: purified proteins
In the case of B1, the binding entry in experiment [2], in experiment [3], in experiment [4], in experiment [5], in experiment [6] and in experiment [7] was “no binding” each time.

The record behind these values is article PMC9388692, “Nuclear import of PTPN18 inhibits breast cancer metastasis mediated by MVP and importin β2” (Cell Death & Disease, 2022).
